Drawing on PubChem BioAssay AID328 (DTP/NCI, 2004), this text covers T/C and survivor count for 16 molecules.

The subject of the assay is BDF1 mice, P388 leukemia ip, median survival T/C. Put plainly: NCI In Vivo Anticancer Drug Screen. Data for tumor model P388 Leukemia (intraperitoneal) in B6D2F1 (BDF1) mice. The note with it: T/C endpoint: median survival time, higher T/C = longer survival. The gist of the method:
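Read-out is survival of treated animals expressed relative to the vehicle group, as a T/C ratio.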

Setting [1] is: dose: 6.5 mg/kg/injection, schedule: Q01DX005 (iv), vehicle: other.
Setting [2] is: dose: 200.0 mg/kg/injection, schedule: Q01DX009 (ip), vehicle: saline with Tween-80.
Where [3] appears, read: dose: 400.0 mg/kg/injection, schedule: Q01DX009 (ip), vehicle: saline with Tween-80.
Where [4] appears, read: dose: 25.0 mg/kg/injection, schedule: Q01DX009 (ip), vehicle: saline with Tween-80.
Where [5] appears, read: dose: 50.0 mg/kg/injection, schedule: Q01DX009 (ip), vehicle: saline with Tween-80.
[6] abbreviates: dose: 400.0 mg/kg/injection, schedule: Q04DX003 (ip), vehicle: saline with Tween-80.

The list does not hold the whole screen: it gathers tests that were run many times, whatever their T/C, doses with no T/C, and many T/C values between a quarter and a half above the control. Other doses and runs of a compound stand elsewhere. T/C gives the treated animals as a percentage of the vehicle group. Some doses have a count of surviving animals in place of a T/C: the source files T/C as zero there, which appears to mark a toxic dose or a test without result, not a measured value. Some doses without a T/C left all or most animals alive at the check, yet need not have been tolerated: the source hardly ever lists a survival T/C far under the control, and the zero likely stands for such cases as well. Survivors were counted at the toxicity check, usually on the fifth day, unless a day is given; later deaths do not show. Schedules are NCI's codes, read here as Q, the interval in days (D) or hours (H), X, the number of doses. Some entries were tested several times; the results are listed from low to high. Some structures stand for samples that the source files as different forms (salt, stereo form or complex); doses refer to the form tested. Additions like (4×) say how often a value occurs here. For survival time, the PubChem record calls one and a half times the control and up active, and a quarter to a half above the control has no call in these data; cut-offs in other NCI protocols can differ. Some T/C values are followed by the survivors on the day toxicity was checked, most often the fifth; without a count, all were alive then.

Turning to `COc1cc(NS(C)(=O)=O)ccc1Nc1c2ccccc2nc2ccccc12`, the T/C by setting is: (dose: 0.37 mg/kg/injection, schedule: Q01DX009 (ip), vehicle: saline) 140 % of control; (dose: 3.12 mg/kg/injection, schedule: Q01DX009 (ip), vehicle: Klucel (hydroxypropylcellulose) (HPC)) 149 % of control [5 of 6 alive]; (dose: 3.3 mg/kg/injection, schedule: Q01DX005 (iv), vehicle: other) 128 and 134 % of control; under setting [1], 143 % of control [9 of 10 alive]; (dose: 6.6 mg/kg/injection, schedule: Q04DX003 (iv), vehicle: other) 134 % of control; (dose: 10.0 mg/kg/injection, schedule: Q04DX003 (iv), vehicle: other) 134 % of control. Also, the T/C (dose: 10.0 mg/kg/injection, schedule: Q08DX002 (iv), vehicle: other) was 132 % of control; the T/C (dose: 13.0 mg/kg/injection, schedule: Q04DX003 (iv), vehicle: other) is 146 % of control; the T/C (dose: 15.0 mg/kg/injection, schedule: Q08DX002 (iv), vehicle: other) was 141 % of control; the T/C (dose: 16.0 mg/kg/injection, schedule: Q04DX003 (ip), vehicle: lactic acid) was 137 and 145 % of control. The survivor count is, setting by setting: (dose: 4.0 mg/kg/injection, schedule: Q01DX009 (ip), vehicle: other) 10 of 10 (4×); (dose: 6.5 mg/kg/injection, schedule: Q01DX005 (ip), vehicle: other) 10 of 10; under setting [1], 10 of 10; (dose: 8.0 mg/kg/injection, schedule: Q01DX009 (ip), vehicle: other) 8 of 10 (2×) and 10 of 10 (2×); (dose: 13.0 mg/kg/injection, schedule: Q01DX005 (ip), vehicle: other) 6 of 10; (dose: 13.0 mg/kg/injection, schedule: Q01DX005 (iv), vehicle: other) 9 of 10 and 10 of 10. Also, the survivor count is listed as 6 of 8 (dose: 15.0 mg/kg/injection, schedule: Q04DX003 (ip), vehicle: clinical formulation); 8 of 8 (dose: 16.7 mg/kg/injection, schedule: Q04DX003 (ip), vehicle: other); 1 of 10 (dose: 22.6 mg/kg/injection, schedule: Q04DX003 (ip), vehicle: other); 5 of 10 (dose: 22.6 mg/kg/injection, schedule: Q08DX002 (ip), vehicle: other); 4 of 10, 7 of 10, 9 of 10 (dose: 24.0 mg/kg/injection, schedule: Q04DX003 (ip), vehicle: lactic acid); 3 of 8 (dose: 25.0 mg/kg/injection, schedule: Q04DX003 (ip), vehicle: clinical formulation). Further, the survivor count is on record as 1 of 10 (dose: 26.0 mg/kg/injection, schedule: Q01DX005 (iv), vehicle: other); 0 of 10 (dose: 34.0 mg/kg/injection, schedule: Q04DX003 (ip), vehicle: other); 4 of 10 (dose: 34.0 mg/kg/injection, schedule: Q08DX002 (ip), vehicle: other); 3 of 10 (dose: 51.0 mg/kg/injection, schedule: Q04DX003 (ip), vehicle: other); 6 of 10 (dose: 51.0 mg/kg/injection, schedule: Q04DX003 (iv), vehicle: other); 0 of 10 (dose: 51.0 mg/kg/injection, schedule: Q08DX002 (ip), vehicle: other). Further, the survivor count (dose: 51.0 mg/kg/injection, schedule: Q08DX002 (iv), vehicle: other) was 0 of 10.

`CCCCOB(/C=C/Sc1ccccc1)OCCCC`: the T/C (dose: 133.0 mg/kg/injection, schedule: Q01DX009 (ip), vehicle: saline with Tween-80) is 127 % of control; the T/C under setting [2] is recorded as 127, 133, 135 % of control; the T/C (dose: 300.0 mg/kg/injection, schedule: Q01DX009 (ip), vehicle: saline with Tween-80) was 125 % of control. Besides, under setting [3], the survivor count was 1 of 6.

In the case of `O=C(c1ccccc1)C12CC3CC(CC(C3)C1)C2`, the T/C (dose: 12.5 mg/kg/injection, schedule: Q01DX009 (ip), vehicle: saline with Tween-80) is 126 % of control. Besides, the survivor count is, setting by setting: under setting [4], 6 of 6; under setting [5], 6 of 6; (dose: 100.0 mg/kg/injection, schedule: Q01DX009 (ip), vehicle: saline with Tween-80) 6 of 6.

`CCCCC(=O)OCC(=O)[C@]1(O)Cc2c(O)c3c(c(O)c2[C@@H](OC2CC(NC(=O)C(F)(F)F)C(O)C(C)O2)C1)C(=O)c1c(OC)cccc1C3=O` (stereo partly drawn): the T/C (dose: 5.0 mg/kg/injection, schedule: Q01DX004 (ip), vehicle: other) was 135 % of control and the T/C (dose: 15.1 mg/kg/injection, schedule: Q04DX003 (ip), vehicle: other) is 146 % of control. Also, the survivor count is 10 of 10 (dose: 40.0 mg/kg/injection, schedule: Q01DX004 (ip), vehicle: other); 10 of 10 (dose: 50.0 mg/kg/injection, schedule: Q01DX004 (ip), vehicle: other); 6 of 10 and 10 of 10 (dose: 60.0 mg/kg/injection, schedule: Q01DX004 (ip), vehicle: other); 8 of 8 (dose: 60.0 mg/kg/injection, schedule: Q01DX004 (ip), vehicle: saline with Tween-80).

As for `Cc1cc(N(CCCl)CCCl)c(C)cc1NC(=O)c1ccccc1`, the survivor count reads like this: under setting [4], 5 of 6; under setting [5], 5 of 6.

As for `O=CN1CCCC1C(=O)O` (stereo not drawn), for the setting “dose: 100.0 mg/kg/injection, schedule: Q01DX009 (ip), vehicle: water”, the survivor count is listed as 6 of 6.

With `CC(C)OC(=O)c1ccc(C(C)C)cc1`, the survivor count under setting [3] is reported as 1 of 6.

On to `O=C(O)C1OC(n2cc([N+](=O)[O-])c(=O)[nH]c2=O)C(O)C1O` (stereo not drawn), for which, under setting [2], the survivor count is listed as 6 of 6.

As to `CC(=O)OC(C)(C)c1ccccc1[S+]1OC(C)(C)c2ccccc21` (stereo not drawn), the survivor count is 0 of 6 (dose: 200.0 mg/kg/injection, schedule: Q01DX001 (ip), vehicle: other) and 0 of 6 (dose: 400.0 mg/kg/injection, schedule: Q01DX001 (ip), vehicle: other).

As for `OC(CCCCl)CC(O)(C(F)(F)F)C(F)(F)F` (stereo not drawn), under setting [6], the survivor count is listed as 4 of 6.

Consider `C[CH2][Sn]([CH2]C)([O]S(=O)(=O)CC12CCC(CC1=O)C2(C)C)[O]S(=O)(=O)CC12CCC(CC1=O)C2(C)C`, for which, where the note is “dose: 6.25 mg/kg/injection, schedule: Q01DX009 (ip), vehicle: saline”, the T/C was 149 % of control [5 of 6 alive]. Also, the survivor count (dose: 50.0 mg/kg/injection, schedule: Q01DX009 (ip), vehicle: saline) is 0 of 6.

With `OC(c1ccc(Cl)cc1)C1CCNCC1` (stereo not drawn), the survivor count (dose: 200.0 mg/kg/injection, schedule: Q01DX009 (ip), vehicle: saline) is 2 of 6.

Regarding `CCCCOc1ccc(OCCCCCCCCCC[N+](C)(C)C)cc1`, the survivor count (dose: 1.56 mg/kg/injection, schedule: Q01DX009 (ip), vehicle: Klucel (hydroxypropylcellulose) (HPC)) is given as 6 of 6.

For the molecule `Nc1nc(=S)c2[nH]c(N=Nc3ccc(S(=O)(=O)Nc4ccccn4)cc3)nc2[nH]1`, the survivor count by setting is: (dose: 50.0 mg/kg/injection, schedule: Q01DX009 (ip), vehicle: Klucel (hydroxypropylcellulose) (HPC)) 6 of 6; (dose: 100.0 mg/kg/injection, schedule: Q01DX009 (ip), vehicle: Klucel (hydroxypropylcellulose) (HPC)) 6 of 6; (dose: 200.0 mg/kg/injection, schedule: Q01DX009 (ip), vehicle: Klucel (hydroxypropylcellulose) (HPC)) 6 of 6.

As for `CN(N=O)C(N)=O`, under “dose: 16.5 mg/kg/injection, schedule: Q04DX003 (ip), vehicle: saline with Tween-80”, the T/C was 125 % of control. The survivor count by setting is: (dose: 100.0 mg/kg/injection, schedule: Q04DX003 (ip), vehicle: saline with Tween-80) 6 of 6; (dose: 200.0 mg/kg/injection, schedule: Q04DX003 (ip), vehicle: saline with Tween-80) 0 of 6; under setting [6], 3 of 6.

On to `CC(Br)C(=O)NCC(=O)NCC(=O)O` (stereo not drawn), for which the survivor count (dose: 400.0 mg/kg/injection, schedule: Q01DX009 (ip), vehicle: saline) is recorded as 6 of 6.
